These are yes or no findings as the source states them, for the method shown. In cells and extracts the contact can be indirect. Some binding calls cover weakened binding; strength is not graded here.
Target: human MC4R wild-type (human) (UniProt P32245)
Experiment: FRET or BRET; FRET acceptor photobleaching (FRET-AB), intensity-based, on the same fixed HEK293T samples; bleach of mCherry at 594 nm in a membrane region of interest

Chains of the proteins cited; added tags and fusions are not shown.
UniProt P32245: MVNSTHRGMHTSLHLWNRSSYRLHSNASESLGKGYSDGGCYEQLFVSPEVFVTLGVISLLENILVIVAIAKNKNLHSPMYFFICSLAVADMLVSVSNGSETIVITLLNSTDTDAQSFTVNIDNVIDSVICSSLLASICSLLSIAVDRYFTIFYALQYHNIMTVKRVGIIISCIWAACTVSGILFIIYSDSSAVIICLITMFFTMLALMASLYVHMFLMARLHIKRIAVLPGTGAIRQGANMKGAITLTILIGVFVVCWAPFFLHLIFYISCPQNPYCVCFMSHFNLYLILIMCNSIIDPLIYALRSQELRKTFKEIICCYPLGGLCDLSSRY

binding: binds
Substance: human MC4R wild-type (from UniProt P32245 1-332) (receptor)

Reference: article PMC10667928
